In article PMC9426511:
These are yes or no findings as the source states them, for the method shown.

B1: EsrB (protein, UniProt A0AAU8P338 1-214)
chain: MTISILPLNILIVEDHALLADGIRNLLDSQPRYRVVGAVSNGLAVYEACQRLSPDLVLLDLGLPGMDGVDVIRQLRRRWSDMRIVVVTASSEARRGSEALAAGALAYVLKQSPQQTLLAAMQHASLGKTFVDPALRLDSLVASSDMAQEPPLTLRERQILKLVAEGKRNRDIAELLSISLKTVETHRLNLMRKLDAHNAAELSNWARRLGVLEF
B2: EsaU (protein, UniProt A0AAU8P1U8 1-352)
chain: MSEKTEQPTAKRLRDAREEGQVAKSQDISATVQLAVILLWMVTEGPTLYAAIGGFIDATLATLNLPLPDAIALLTGKAAALVVRFVFSLAALLAVTLILTGLVETGFLFAPKAIMPSAERINPLNNAKQMVSLLKLFELGKMVLKIVILGLTFTYFIRGYAASFAQLVRADAEAGLWVTSKMTLWMWGILLLLTALFAVVDYSMQYRHLRKQLMMSHEDIKQEFKNAEGSPEIKQRRRELHREIQSGSLADSVSSASVVVRNPTHIAVCLRYCEGETPLPQVVEYGRGARARHIVALAEARRIPVVENIPLARALIATTRPGDYVPEALFVAVAQLLRLLRDETEEEEEEDA
B3: EseE (protein, UniProt A0AAU8P1U3 1-127)
chain: MDDVSRFMIAEGLRPAPAHFLESEFLMGQRIETPRFYLTYRQEGERLILCDFTARNDDGQAVIALMGLLRRLIGALPLLRYIDAMILPAPHDRALDRMRRRLTDVMLAEGAQPLRLDDALWLRYCCR
B4: EsrC (protein, UniProt A0AAU8PC08 1-230)
chain: MPNLHLLLVTGPDNIALLPEPGALLIADSRPPGIASTRHTRLFSYPCNLLHGICRDLQHLMYSGPAPVAPPQPLPIAMAPGLLKTLLRLADADDETMLRLVLAYSLTLECQRTSTLLRSLLTADADLFDTLYRHRLEPWPVARYADLFGLSQRKFNQLFNDKFGMAPKRWLLRQRLGHARQLLETTSKKVIDVALESGFCNAAHFSDCFRRHFSQSPSEVRRASLHHRAG
B5: EsaT (protein, UniProt A0AAU8P212 1-260)
chain: MMAELNHWWPLLGIAMMRPLGIMLIMPLFNSAMLGGALIRNALALMAALPALPQLAALVLPSPLQAPLHYGGLLLGELVLGLLLGFSAALPLWALNMAGFIIDTMRGASIAVLFNPLLGEQSSPMGVLFSQLVGVLFIVGGGFHALLAALFSSYGDLPPGQYWLWGRGFIPLLMHLWHLLYTLALSFSMPAMVMMVLVDLALGFINRSVQQLNVFTLSMPIKSAMVLLMLIISLPFALDGVQALFTRFDGGLLRQLAEAL
B6: EsaN (protein, UniProt A0AAU8PEE6 1-438)
chain: MRLPDAQKILDRLDCPTLPSVTDVRLEGRLLTVGATLLRAHLPGVGLGEQCTLPDGSPAEVVAIEGDQALLSPYHAPLGLANGMLVTPSGAQARIGVGEALLGRVIDALGQPMDGCAPPQAAQWRSLESPAPDPMQRAPIDTLLPMGVRAIDAALSVGVGQRLGIFSPAGCGKSTLLGMLAAHSQVDVVVLALIGERGREVREFIEQIMSPELRARSVVILATSDRPALERIKAADTATVIAEYFRDRGHHVLLLVDSLTRYARAIREIALAAGEPMVSGGYPPSLYARLPRLLERAGPAACGSITAFYTVLVEQKSDPLAEEVRSLLDGHIVLSRRLAEASHYPAIDILASISRVMSQVVTPQHRQAANRLRHLLATWQEIALLVRVGEYRAGQDADADDAMARREAIASLLCQQTDERCPLSATLSALYSAVGQPC
B7: EsaS (protein, UniProt A0AAU8P1V4 1-89)
chain: MGKAQLVQLASELLWLVLILSLPVVLVASLVGVLVGLVQALTQIQDQTVSFAIKLVAASVTLALTYHWMGSALFSYAGRAMDLIAQMGG
B8: EsaI (protein, UniProt A0AAU8P5G8 1-83)
chain: MNVDALNAIGQALTGGTPEVNDPVPLPAQQRFAALMNAPQAGDSPDALLAIQGTLNELAVGVDLTAKVAGSVAQSINKLVNLS
B9: EseB (protein, UniProt A0AAU8P3X3 1-198)
chain: MTVNTDYHGGVNHVGANGYDNNLDRMAGQGDSIMSDGISVLYQFMTLFTDLAQGKYDQMKAKADRARNSQQVANQIDAIIAKFKKAGDKGDLPPEVLKYLRDHNINITVQDDGKNATSDIDQYLKSIGHPDGKGLDKGELDVIKGALETDSGRSSDFVTQAQLQIQKTMQSYNVCVSLINSMQTLLAEMNKSIAQNIR
B10: EsaL (protein, UniProt A0AAU8P1W1 1-342)
chain: MLNIHSASLAPTDRQTIVPHAAPGPENGASVIAQAMVELSESQSDALEETQEDLSFALGGRLRELRNGKEHDSSSRDRVLMHKLVAEVAMIAEEDLSDLNDDSAWQHAPQLLSALQAQYPAPGAAALHLAAWLAHRQPGARLRSRMEAALASLMADDQTAIALFATLEFGAVTPGLRQELLQLYHRALAPRRQISQWLNLLGERQQRHKKIRAMLHLLAYALSASGQPIVGSHLAAVIDDLRQLLRLLGLEDYCDRAAAALGMPAISGEGLMLLVVQLIEQIWLNADTLAEMLPPQAELDRYRLLQSLGKLIQLLPDACFNDADHRLQLDDAIHNLSDSIVS
B11: EsaR (protein, UniProt A0AAU8P1T9 1-215)
chain: MSLTEQPAELIALLVTLSLLPLLIVMGTSFLKLSVVFALLRNALGIQQIPPNIALYGLALILTLFIMTPVGTAVQARLADAPAEAQTTLLARLSDNTLDPYRQFLRQHTSATQLHFFRQVATKSWPASVREQISDDSLLLLMPAFAVSQLVEAFQIGLLLFLPFIAIDLIVSNILLAMGMMMVSPMTISMPFKLLVFILVGGWDKLLGQLLLSYR
B12: EsaC (protein, UniProt A0AAU8PNE5 1-494)
chain: MRILVLLLLLCGGFSAPSLAQPIPWRGAPFFVSSQSATLASVLRDLGANSGVPVVVSPRITESYAGELRDTPRGTILAELSRLYQLLPYYDGNTLYIYKAQEMEQATLAPSYLAGSVLKRLLQRSGLLDGYACQVRQVASANALQVNGVPACLSQVTTLAKQLDEQDLNLEQNRETVAVFPLKYANASDTSYAYRNQSVVVPGLVSVLREMAQGHAMPLPDSKSGTPPSNSSGLPTFSADLRQNAVLIRDRKQNMALYRQLIQQLDKRPTLIEISVTIIDVDAGDINELGIDWSASARIGGGQVSFNNSGGLNADSFSSLIANSGSFMVRLSALEQQSKAKIVSRPSVVTLDNVQAVLDRSITFYTKLRSEKNPKLEAITAGALMRVTPRLIRERGGNKILLILNIEDGRQGAPLSQAESLPQVQNAEIATQATLNLGQALLLGGFVQNENTQGVRKIPLLGDIPLIGGLFRSTDSKVHSVVRLFLIKAEPRQM
B13: EsaJ (protein, UniProt A0AAU8P3W1 1-243)
chain: MKIIPWILIFGLLPLLSGCKSELYSKLDEKEANQMMALLIYNNIPADKRVEKEGVTLLVERERFVDAVEVLRQNGLPRRKTVTMQELFPSGQLVTSPEQEEAKLNYLKSQQIEKMLGSMDGVINAEVSVAEPRVIVGEAPPQASAAVFIKYSPEINLPAREAEIRALIHNGIPGLAPDRISVTLQRAEYRYQPPTIAAAEDHKITLYGHPLPREALVAAACTLLFGLLISLFLWLRRPGRSTS
B14: EsaD (protein, UniProt A0AAU8P989 1-396)
chain: METCFKLTLLNGPLRGQALRLPAGEFTLGEREESDLHLALESGGSASLSVSAQGVSLATPTACWVGGRPWHGDRLPLNQGIDLAGIHFALTDGASDTPLPQIAKRRTGRRTTLLYLLLGALLPTLGIIGLLWPSAAPTPPSPRAWLPQALQNEPGLQAIWQSSGDLLLRGHCQESGRLAALRQRLQASGIHLQQEAVCNDTLRQALRALLNSYGYQNMIITLQDNGDAAIDGDFQGNSAPLAQALDRLPGLGRWQFTDSGAQTLSRLINALRAEGLLEGISARRTEHAWLLSGHLAPPQQARLNHLLQRLGQQGEGDTLPLRFIGMAGAFDAEDLLPAPIAGVGGADNALYLQLSNGMRLLPGAPLSQGMRIVQITASGVSLAGRLRLIFIPLHSR
B15: EseD (protein, UniProt A0AAU8P1W8 1-193)
chain: MTTIDSGSHGVNGITPPDGHRYVSQDRGGDAIGQLNELMVQLGELFGKLRDVLRQYQQTQQSNAFKMQKTAYDTRVDAIDKDFQAKQAQAIAQILGGIAQTVGGAFGEEAHTISNGVNSMTQGIVGVGYVNDMSRQSQEEQALSEYQHGLAEQQLKRADETLEKALKISGDLREILTTLNQAHERIASSVRMS
B16: EsaB (protein, UniProt A0AAU8P1T4 1-159)
chain: MPARRSHINSGMHPIRSGAPPLYPNDMNRKLNPRQALQQLAMYLNQADWSQGQQSLTGTLQDRRLKGRYFASGMCVAITIAWPLAQASQACLLLAASPETLDDALYVEQEQFWLLRRYPPALTEAELDLLLQQQLAMAGLLAPAVRDTHPESPFIGRYA
B17: EseC (protein, UniProt A0AAU8P6S4 1-478)
chain: MNNITETRYTTPPLGGSGQNDSVQSQHDHPQIGAGALDPLRPPPQRQQDHDPKREFHRPPAPRQPVTLRLAEGALNRILDIFGPRVDGKPLTVSDIERTPMEAMTLAASLLGVKALGDNANLKALAMEIRTHGAENLRLRQNEDLRKQVEKSIEDQAKAQKAGIFSAIVDWIVSIAEVVSGIGKILIGDFAGGAMDVAAGCAGLVKAACETLALIDKDNAEKYQSIADVAGKVQLAFEIAGMAVDLVSVGRGVMASKSIAKATETVMEGAAGEALHTAVTQGSETAIKTAASEIGKQVAEQVADQVTRTLAEQSGRFLGQGHLLEAFSKQAIEQMVTRAVEAAAKKALQSGVEMSAKELSKQVVKEVQREVIKAIVGACIDSVANNAKSTTRSTLQGVNGVYQGVITKERADLQKVIQQLINETDFMQFMLEEFEKIKKRAKEDIGSLMDGAGKALSAAADAQQKSGAMLSNIAANIA

Target: EscE (Edwardsiella piscicida)
Assay: two-hybrid; bait in pGBKT7 (GAL4 DNA-binding domain), prey in pGADT7 (GAL4 activation domain), yeast AH109; growth as blue colonies on SD/-Trp -Leu -His -Ade

Binder	binding
B1	no binding
B2	no binding
B3	no binding
B4	no binding
B5	no binding
B6	no binding
B7	no binding
B8	no binding
B9	no binding
B10	no binding
B11	no binding
B12	no binding
B13	no binding
B14	no binding
B15	no binding
B16	no binding
B17	no binding
